Test results from PubChem BioAssay AID256 (DTP/NCI, 2004).
The list shows only some results of the screen, not a fair sample: its compounds were picked by chemical class. Other doses and runs of a compound may be missing. T/C is the treated group as % of the vehicle group. For survival time, this PubChem deposit counts one and a half times the control or more as active, and values a quarter to a half above the control carry no call in these data; other NCI protocols may use other cut-offs. Schedule codes are those of the source, read here as Q, the interval in days (D) or hours (H), X, the number of doses. Some entries show no survivor count and are marked so; the dose need not have been tolerated. Some doses were run more than once; their values stand side by side, smallest first.

System: CD2F1 mice, L1210 leukemia ip, survival T/C
Assay: NCI In Vivo Anticancer Drug Screen. Data for tumor model L1210 Leukemia (intraperitoneal) in CD2F1 (CDF1) mice
Settings: higher T/C = longer survival
Description: The antitumor activity of compounds was measured in mice bearing transplantable tumors. Survival or tumor size were measured and the results are expressed as the measurement made in the treated group (T) divided by the measurement made in the vehicle treated control group (C). The tumor model used in this assay is L1210 Leukemia (intraperitoneal) in CD2F1 (CDF1) mice

CC(=O)OCC12CCC(C)=CC1OC1C(O)C(OC(C)=O)C2(C)C12CO2 (configuration not stated)
T/C (T/C endpoint: mean survival time, dose: 0.06 mg/kg/injection, schedule: Q03HX008 (ip), vehicle: saline): 113 % of control [survivor count not shown] | T/C (T/C endpoint: mean survival time, dose: 0.06 mg/kg/injection, schedule: Q03HX016 (ip), vehicle: saline): 104 % of control [survivor count not shown] | T/C (T/C endpoint: mean survival time, dose: 0.06 mg/kg/injection, schedule: Q03HX024 (ip), vehicle: saline): 109 % of control [survivor count not shown] | T/C (T/C endpoint: mean survival time, dose: 0.13 mg/kg/injection, schedule: Q03HX008 (ip), vehicle: saline): 119 % of control [survivor count not shown] | T/C (T/C endpoint: mean survival time, dose: 0.13 mg/kg/injection, schedule: Q03HX024 (ip), vehicle: saline): 118 % of control [survivor count not shown] | T/C (T/C endpoint: mean survival time, dose: 0.25 mg/kg/injection, schedule: Q01DX009 (ip), vehicle: saline): 118 % of control [survivor count not shown] | T/C (T/C endpoint: mean survival time, dose: 0.25 mg/kg/injection, schedule: Q03HX008 (ip), vehicle: saline): 129 % of control [survivor count not shown] | T/C (T/C endpoint: mean survival time, dose: 0.25 mg/kg/injection, schedule: Q03HX016 (ip), vehicle: saline): 116 % of control [survivor count not shown] | T/C (T/C endpoint: mean survival time, dose: 0.25 mg/kg/injection, schedule: Q03HX024 (ip), vehicle: saline): 119 % of control [survivor count not shown] | T/C (T/C endpoint: mean survival time, dose: 0.5 mg/kg/injection, schedule: Q01DX009 (ip), vehicle: saline): 119 % of control [survivor count not shown] | T/C (T/C endpoint: mean survival time, dose: 0.5 mg/kg/injection, schedule: Q01DX009 (iv), vehicle: saline): 124 % of control [survivor count not shown] | T/C (T/C endpoint: mean survival time, dose: 0.5 mg/kg/injection, schedule: Q01DX009 (sc), vehicle: saline): 110 % of control [survivor count not shown] | T/C (T/C endpoint: mean survival time, dose: 0.5 mg/kg/injection, schedule: Q03HX008 (ip), vehicle: saline): 117 [survivor count not shown] and 138 % of control [survivor count not shown] | T/C (T/C endpoint: mean survival time, dose: 0.5 mg/kg/injection, schedule: Q03HX016 (ip), vehicle: saline): 122 % of control [survivor count not shown] | T/C (T/C endpoint: mean survival time, dose: 0.5 mg/kg/injection, schedule: Q03HX024 (ip), vehicle: saline): 141 [survivor count not shown] and 144 % of control [survivor count not shown] | T/C (T/C endpoint: mean survival time, dose: 1.0 mg/kg/injection, schedule: Q01DX009 (ip), vehicle: saline): 131 % of control [survivor count not shown] | T/C (T/C endpoint: mean survival time, dose: 1.0 mg/kg/injection, schedule: Q01DX009 (iv), vehicle: saline): 130 % of control [survivor count not shown] | T/C (T/C endpoint: mean survival time, dose: 1.0 mg/kg/injection, schedule: Q01DX009 (oral), vehicle: saline): 110 % of control [survivor count not shown] | T/C (T/C endpoint: mean survival time, dose: 1.0 mg/kg/injection, schedule: Q01DX009 (sc), vehicle: saline): 127 % of control [survivor count not shown] | T/C (T/C endpoint: mean survival time, dose: 1.0 mg/kg/injection, schedule: Q03HX008 (ip), vehicle: saline): 136 % of control [survivor count not shown] | T/C (T/C endpoint: mean survival time, dose: 1.0 mg/kg/injection, schedule: Q03HX016 (ip), vehicle: saline): 127 % of control [survivor count not shown] | T/C (T/C endpoint: mean survival time, dose: 2.0 mg/kg/injection, schedule: Q01DX001 (ip), vehicle: saline): 103 % of control [survivor count not shown] | T/C (T/C endpoint: mean survival time, dose: 2.0 mg/kg/injection, schedule: Q01DX009 (ip), vehicle: saline): 137 % of control [survivor count not shown] | T/C (T/C endpoint: mean survival time, dose: 2.0 mg/kg/injection, schedule: Q01DX009 (iv), vehicle: saline): 134 % of control [survivor count not shown] | T/C (T/C endpoint: mean survival time, dose: 2.0 mg/kg/injection, schedule: Q01DX009 (oral), vehicle: saline): 121 % of control [survivor count not shown] | T/C (T/C endpoint: mean survival time, dose: 2.0 mg/kg/injection, schedule: Q01DX009 (sc), vehicle: saline): 121 % of control [survivor count not shown] | T/C (T/C endpoint: mean survival time, dose: 2.0 mg/kg/injection, schedule: Q04DX003 (ip), vehicle: saline): 114 % of control [survivor count not shown] | T/C (T/C endpoint: mean survival time, dose: 2.0 mg/kg/injection, schedule: Q08DX002 (ip), vehicle: saline): 96 % of control [survivor count not shown] | T/C (T/C endpoint: mean survival time, dose: 4.0 mg/kg/injection, schedule: Q01DX001 (ip), vehicle: saline): 93 [survivor count not shown] and 107 % of control [survivor count not shown] | T/C (T/C endpoint: mean survival time, dose: 4.0 mg/kg/injection, schedule: Q01DX001 (iv), vehicle: saline): 110 % of control [survivor count not shown] | T/C (T/C endpoint: mean survival time, dose: 4.0 mg/kg/injection, schedule: Q01DX001 (oral), vehicle: saline): 103 % of control [survivor count not shown] | T/C (T/C endpoint: mean survival time, dose: 4.0 mg/kg/injection, schedule: Q01DX009 (ip), vehicle: saline): 126 % of control [survivor count not shown] | T/C (T/C endpoint: mean survival time, dose: 4.0 mg/kg/injection, schedule: Q01DX009 (iv), vehicle: saline): 101 % of control [survivor count not shown] | T/C (T/C endpoint: mean survival time, dose: 4.0 mg/kg/injection, schedule: Q01DX009 (oral), vehicle: saline): 89 % of control [survivor count not shown] | T/C (T/C endpoint: mean survival time, dose: 4.0 mg/kg/injection, schedule: Q04DX003 (ip), vehicle: saline): 113 [survivor count not shown] and 117 % of control [survivor count not shown] | T/C (T/C endpoint: mean survival time, dose: 4.0 mg/kg/injection, schedule: Q08DX002 (ip), vehicle: saline): 102 [survivor count not shown] and 105 % of control [survivor count not shown] | T/C (T/C endpoint: mean survival time, dose: 8.0 mg/kg/injection, schedule: Q01DX001 (ip), vehicle: saline): 104 % of control [survivor count not shown] | T/C (T/C endpoint: mean survival time, dose: 8.0 mg/kg/injection, schedule: Q01DX001 (oral), vehicle: saline): 108 % of control [survivor count not shown] | T/C (T/C endpoint: mean survival time, dose: 8.0 mg/kg/injection, schedule: Q04DX003 (ip), vehicle: saline): 115 [survivor count not shown] and 123 % of control [survivor count not shown] | T/C (T/C endpoint: mean survival time, dose: 8.0 mg/kg/injection, schedule: Q08DX002 (ip), vehicle: saline): 100 [survivor count not shown] and 110 % of control [survivor count not shown] | T/C (T/C endpoint: median survival time, dose: 0.25 mg/kg/injection, schedule: Q01DX009 (ip), vehicle: saline): 110 % of control [survivor count not shown] | T/C (T/C endpoint: median survival time, dose: 0.5 mg/kg/injection, schedule: Q01DX009 (ip), vehicle: saline): 125 % of control [survivor count not shown] | T/C (T/C endpoint: median survival time, dose: 1.0 mg/kg/injection, schedule: Q01DX009 (ip), vehicle: saline): 134 % of control [survivor count not shown] | T/C (T/C endpoint: median survival time, dose: 2.0 mg/kg/injection, schedule: Q01DX009 (ip), vehicle: saline): 135 % of control [survivor count not shown] | T/C (T/C endpoint: median survival time, dose: 4.0 mg/kg/injection, schedule: Q01DX009 (ip), vehicle: saline): 143 % of control [survivor count not shown]

C=C(C)C(=O)OCC12CCC(C)=CC1OC1C(=O)C(OC(=O)C(=C)C)C2(C)C12CO2 (configuration not stated)
T/C (T/C endpoint: median survival time, dose: 0.25 mg/kg/injection, schedule: Q01DX009 (ip), vehicle: DMSO): 103 % of control [survivor count not shown] | T/C (T/C endpoint: median survival time, dose: 0.25 mg/kg/injection, schedule: Q01DX009 (ip), vehicle: distilled water + Tween-80): 100 % of control [survivor count not shown] | T/C (T/C endpoint: median survival time, dose: 0.5 mg/kg/injection, schedule: Q01DX009 (ip), vehicle: DMSO): 111 % of control [survivor count not shown] | T/C (T/C endpoint: median survival time, dose: 0.5 mg/kg/injection, schedule: Q01DX009 (ip), vehicle: distilled water + Tween-80): 102 % of control [survivor count not shown] | T/C (T/C endpoint: median survival time, dose: 1.0 mg/kg/injection, schedule: Q01DX009 (ip), vehicle: distilled water + Tween-80): 101 % of control [survivor count not shown] | T/C (T/C endpoint: median survival time, dose: 2.0 mg/kg/injection, schedule: Q01DX009 (ip), vehicle: distilled water + Tween-80): 108 % of control [survivor count not shown] | T/C (T/C endpoint: median survival time, dose: 4.0 mg/kg/injection, schedule: Q01DX009 (ip), vehicle: distilled water + Tween-80): 111 % of control [survivor count not shown]
